Data on 1 compound can be found in patent US12324568B2, “Mouthwash to deliver dyes for dental imaging” (BOARD OF SUPERVISORS OF LOUISIANA STATE UNIVERSITY AND …, priority 2020, dated 2025).

For data set [1], the system named is rat molars (erupted P31, unerupted P14). The experiment in a line: ICG-assisted NIR dental imaging after subcutaneous injection in rat model. It is filed as in vivo, Sprague Dawley rats. The settings on record: imaging window 4 hours. The method, then: Self-breed Sprague Dawley rats, including eight postnatal day 31 (P31) and two P21 rats for erupted molars and sixteen P14 rats for unerupted molars, were utilized. To simulate the mouthwash with living rats, 10 μL ICG solution (1 mg/ml) was pipetted into the mouth of two P31 rats in vivo, and the rats were euthanized after 2 minutes. The other two P21 went through the same in vivo mouthwash procedure and euthanized after 1 minute. In addition, the mandibles were dissected from another two P31 rats directly after euthanasia, then washed with 10 μL ICG (1 mg/ml) solution ex vivo for 10 minutes. For the subcutaneous injection, every two P31 rats were euthanized at each time points 10 minutes and 24 hours, for the ICG injection on the back (5 mg/kg body weight). For the unerupted molars, two rats were sacrificed 1 minute after in vivo mouthwash, and the same for the erupted molars. To study concentration effect on imaging, 0.1, 0.5, 1, and 5 mg/kg of ICG were injected into eight P14 rats (two rats for each dosage, and euthanized for each concentration 4 hours after injection). For P14 rats to study imaging windows, two rats were euthanized at 10 minutes, 4 hours and 48 hours for posting ICG injection (5 mg/kg) respectively.
The imaging system is depicted in FIG. 1(A). A 785 nm laser source shined to the mandibles with fiber and filters, a NIR camera received the videos, and videos were recorded by computer. The mandibles were then extracted and imaged using ICG-assisted endoscopic NIR dental imaging, as described in previous publications.^29-31 In the endoscopic imaging, an output fiber was connected to the endoscope with a camera.^30 All experiments were approved by the Institutional Animal Care and Use Committee (IACUC) of Louisiana State University (Protocol #16-117) and followed the ethical guidelines of animal care.
Meanwhile, endoscopic imaging provided clearer morphologies of the first and second molars than wide-field imaging. The lingual and occlusal cusps of the molars could be easily distinguished, especially for the mouthwash treatment (FIG. 1(B)). As described in previous work,^29, 30 the intensity-mean difference Dmean_diff (IMD) was used as the image contrast for the quantitative evaluation of the target and background. To further reveal the efficiency of the mouthwash and local injection, a sampling line (yellow lines in FIG. 1) covering both molar regions and the surrounding tissues was used to calculate the image contrast of the molar and surrounding tissues.

Data set [2] has as its system human extracted teeth. In words: ICG immersion (ex vivo mouthwash) NIR fluorescence dental imaging of extracted human teeth. The method, then: (§1) Thirty-two human teeth were collected from the Louisiana State University Health Science Center (LSUHSC)—Department of Oral & Maxillofacial Surgery (Baton Rouge, USA), and the diseases were confirmed by Dr. Waleed Zaid. All the samples were fixed in a 10% neutral buffer formalin solution overnight and then washed with phosphate buffered saline (PBS) solution. Prior to the dental imaging, the teeth were immersed into 50 μM ICG solution. To compare the ex vivo mouthwash effects on human and rat teeth, extracted rat teeth from ICG-free rats were also immersed into 50 μM ICG solution. To optimize the imaging window (the time difference between ICG injection and observation), four teeth were removed from the solution and imaged at designated time points of 1 minute, 10 minutes, 30 minutes, 1 hour, 4 hours, 6 hours, 15 hours, and 24 hours using the method of the invention.
The imaging platform for the human teeth was previously described.^32 The experiments were approved by the Institutional Review Board of Louisiana State University (IRB #E11061).

Data set [3] concerns extracted rat teeth. The experiment in a line: ICG immersion (ex vivo mouthwash) NIR dental imaging of extracted rat molar. The method, then:
as §1
The profiles of the human tooth were able to be observed in as short as only 1 minute of ICG immersion, which is an ex vivo mouthwash delivery of dye (FIG. 5(A)-(C)). With increasing immersion time (4 and 24 hours), the profiles of the teeth became clearer than that of the 10 min-immersion. […] The molar became distinguishable after 30 min-immersion. The ICG concentration of immersion solution was 50 μM, the same as with human teeth.

For the compound `CC1(C)C(/C=C/C=C/C=C/C=C2\N(CCCCS(=O)(=O)O)c3ccc4ccccc4c3C2(C)C)=[N+](CCCCS(=O)(=O)[O-])c2ccc3ccccc3c21` [ICG, indocyanine green], the peak wavelength is recorded as around 813 nm in data set [1] (ICG injection 0.1 mg/kg), “about 815 nm” in data set [1] (ICG injection 0.5 mg/kg), “about 815 nm” in data set [1] (ICG injection 1 mg/kg) and “about 820 nm” in data set [1] (ICG injection 5 mg/kg). For the same compound, the “peak wavelength of tooth fluorescence spectrum” value was “around 833 nm” in data set [2] (human teeth, ICG immersion longer than four hours (holds)); 836 nm in data set [2] (human teeth, after the first four hours of ICG immersion); 817 nm in data set [2] (human teeth, start of ICG immersion). The crack detection result in data set [2] (human teeth, first and second NIR windows, cracks not observed in micro-CT slices) is listed as “both cracks were easily recognized”. Moreover, in data set [2] (human tooth, 50 μM ICG), the “ICG immersion time at which profiles of the tooth were observed” value was found to be 1 min. Besides, the enamel-dentin differentiation entry in data set [2] (human tooth, 1 minutes of ICG immersion) is recorded as “not distinguishable”; in data set [2] (human tooth, 24 hours of ICG immersion), “easily recognizable”. The image contrast was 0.65 in data set [3] (extracted rat first molar, immersed 30 minutes in 50 μM ICG solution) and “around 0.6” in data set [3] (extracted rat tooth, different ICG immersion times, kept stable (FIG. 5(D))). The “image contrast, amount less than that of the human teeth” value in data set [3] (extracted rat tooth vs human teeth, 50 μM ICG immersion) amounted to 0.2. Further, in data set [3] (extracted single rat first molar, 50 μM ICG), the “ICG immersion time after which the molar became distinguishable” value worked out at 30 min.
